Reference: publication PMC5120300
Results are given in words; binding and its absence hold for the method and conditions named. Binding seen in cells or lysates may run through a third protein. Some results given as binding are weak or reduced against the parent protein; the word gives no strength.

Protein sequences, listed by entry. Tags and fused reporters are not part of them. Residues count along the entry.
UniProt P12813: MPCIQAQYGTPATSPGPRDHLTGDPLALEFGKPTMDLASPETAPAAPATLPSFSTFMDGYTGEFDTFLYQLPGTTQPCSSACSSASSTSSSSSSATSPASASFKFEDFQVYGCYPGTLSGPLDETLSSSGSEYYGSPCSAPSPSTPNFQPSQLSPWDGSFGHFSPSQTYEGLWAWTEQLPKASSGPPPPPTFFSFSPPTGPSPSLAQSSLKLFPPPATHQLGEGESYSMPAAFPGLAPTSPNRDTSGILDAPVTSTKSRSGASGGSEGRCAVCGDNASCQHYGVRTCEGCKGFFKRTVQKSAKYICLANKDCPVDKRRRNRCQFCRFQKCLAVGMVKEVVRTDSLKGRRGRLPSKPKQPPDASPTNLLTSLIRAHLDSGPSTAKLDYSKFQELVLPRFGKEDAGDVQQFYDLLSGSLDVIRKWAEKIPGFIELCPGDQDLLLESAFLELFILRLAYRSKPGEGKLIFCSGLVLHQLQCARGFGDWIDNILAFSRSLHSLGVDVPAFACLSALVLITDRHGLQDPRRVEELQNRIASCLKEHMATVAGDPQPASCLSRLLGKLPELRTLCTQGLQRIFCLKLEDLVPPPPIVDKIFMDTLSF
UniProt Q01097, residues 27-1482: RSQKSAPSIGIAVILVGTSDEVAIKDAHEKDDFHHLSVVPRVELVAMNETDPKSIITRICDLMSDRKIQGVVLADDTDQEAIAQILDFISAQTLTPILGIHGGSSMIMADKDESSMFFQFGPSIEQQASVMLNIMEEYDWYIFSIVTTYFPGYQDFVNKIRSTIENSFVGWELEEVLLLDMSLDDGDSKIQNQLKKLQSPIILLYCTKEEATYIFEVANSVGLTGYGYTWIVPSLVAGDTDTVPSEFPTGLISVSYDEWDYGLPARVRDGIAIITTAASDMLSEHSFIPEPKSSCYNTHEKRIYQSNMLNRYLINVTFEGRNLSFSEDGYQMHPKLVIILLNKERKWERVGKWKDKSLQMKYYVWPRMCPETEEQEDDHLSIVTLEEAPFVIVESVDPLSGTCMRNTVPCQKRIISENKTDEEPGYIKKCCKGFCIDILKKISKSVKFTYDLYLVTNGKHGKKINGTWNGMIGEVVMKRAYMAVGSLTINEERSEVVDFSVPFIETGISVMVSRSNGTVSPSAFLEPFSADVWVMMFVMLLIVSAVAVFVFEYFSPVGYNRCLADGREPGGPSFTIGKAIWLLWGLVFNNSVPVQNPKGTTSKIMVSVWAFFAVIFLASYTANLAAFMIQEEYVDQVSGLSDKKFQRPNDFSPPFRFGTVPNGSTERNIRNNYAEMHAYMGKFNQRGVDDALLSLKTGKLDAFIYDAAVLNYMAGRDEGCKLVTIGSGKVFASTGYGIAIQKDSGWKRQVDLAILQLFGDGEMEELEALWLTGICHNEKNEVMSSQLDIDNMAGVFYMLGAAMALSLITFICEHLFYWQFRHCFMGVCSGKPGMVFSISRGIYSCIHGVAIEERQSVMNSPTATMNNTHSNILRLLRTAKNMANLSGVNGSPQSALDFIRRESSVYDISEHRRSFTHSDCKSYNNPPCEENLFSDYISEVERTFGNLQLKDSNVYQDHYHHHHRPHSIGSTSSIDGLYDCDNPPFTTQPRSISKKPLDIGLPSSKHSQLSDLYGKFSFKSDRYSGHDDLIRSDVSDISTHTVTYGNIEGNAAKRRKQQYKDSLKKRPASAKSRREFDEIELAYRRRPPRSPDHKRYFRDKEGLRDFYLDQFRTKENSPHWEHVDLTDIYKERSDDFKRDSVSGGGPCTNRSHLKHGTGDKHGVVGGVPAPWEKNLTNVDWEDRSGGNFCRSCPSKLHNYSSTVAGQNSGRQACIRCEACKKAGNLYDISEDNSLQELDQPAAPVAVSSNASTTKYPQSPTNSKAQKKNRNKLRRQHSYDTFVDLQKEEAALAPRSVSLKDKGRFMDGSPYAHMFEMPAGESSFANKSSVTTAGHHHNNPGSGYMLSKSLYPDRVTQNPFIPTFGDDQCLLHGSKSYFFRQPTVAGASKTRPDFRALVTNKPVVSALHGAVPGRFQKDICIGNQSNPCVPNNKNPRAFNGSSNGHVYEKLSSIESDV

How the values were obtained:
[1] = biological target: Nuclear receptor subfamily 4 group A member 1 (mouse (endogenous in hippocampal tissue)) (UniProt P12813); assay: co-IP; protein extracts of mouse hippocampal tissues in IP lysis buffer; anti-NR4A1 or anti-NR2B antibody (rabbit IgG as control) overnight at 4 °C, protein A/G agarose beads 2 h at 4 °C, five washes, Western blot
[2] = biological target: NR2B (mouse (endogenous in hippocampal tissue)) (UniProt Q01097); assay: as above

Row | binding [1] | binding [2] | Substance
1 | binds |  | NR2B (from UniProt Q01097 27-1482)
2 |  | binds | Nuclear receptor subfamily 4 group A member 1 (from UniProt P12813 1-601)
